Source: patent US20060009506A1, “Drugs for the treatment of neoplastic disorders” (Odyssey Thera, Inc., priority 2004, published 2006)
pIC50: −log10 of the molar value.

How the values were obtained:
Format in all cases: cell-based
LoVo cells = assay: MTT proliferation assay, colon adenocarcinoma LoVo; conditions: Homo sapiens, Tumor Cell: Colon (LoVo), 120 hours, concentrations tested in microM
From the text: (§1) We first screened compounds derived from the known pharmacopeia and from a selected natural product collection using two types of assays: (a) measurements of post-translational modifications of proteins; (b) measurements of protein-protein interactions. For the purpose of measuring post-translational modifications of proteins, we used immunofluorescence methods combined with phospho-specific antibodies. For the purpose of quantifying and localizing protein complexes we used fluorescence methods based on protein-fragment complementation assays (PCA). ‘Hits’ from the initial screens were then tested for antiproliferative activity in up to 5 different human tumor cell lines. […] For drugs with antiproliferative activity in PC-3 cells, dose-response curves were generated to determine the EC50 for antiproliferative activity and additional tumor cell lines were tested to determine the breadth of activity. Methods for assay development, validation, screening, and testing of antiproliferative activity are described below.
(§2) Cells were maintained in various media as follows: A549, LoVo and PC-3 (Ham's F12K medium with 2 mM L-glutamine and 1.5 g/L sodium bicarbonate), MIA PaCa-2 (Dulbecco's modified Eagle's medium with 4 mM L-glutamine and 4.5 g/L glucose), U87-MG (MEM+Earle's BSS). […] Background absorbance was established by wells containing medium but no cells. […]

MIA PaCa-2 cells = assay: MTT proliferation assay, pancreatic carcinoma MIA PaCa-2; conditions: Homo sapiens, MIA PaCa-2, 120 h, Tumor Cell: Pancreatic (MIA PaCa-2), concentrations tested in microM
From the text: as §1, §2

PC-3 cells = assay: MTT proliferation assay, prostate adenocarcinoma PC-3; conditions: Homo sapiens, Tumor Cell: Prostate (PC-3), 120 hours, concentrations tested in microM
From the text: as §1, §2

CC(C)c1c(C(=O)Nc2ccccc2)c(-c2ccccc2)c(-c2ccc(F)cc2)n1CC[C@@H](O)C[C@@H](O)CC(=O)O [Atorvastatin] showed a pIC50 (LoVo cells) of 4.77, a pIC50 (MIA PaCa-2 cells) of 5.22 and a pIC50 (PC-3 cells) of 4.97.
